The experiment has as its target TAP-tagged BACE1 (Homo sapiens (Human)). Kind of experiment: TAP purification of tagged bait, LC-MS/MS; novel interactor.

No constants are given. Whether binding was seen depends on the method and setting. Binding calls can cover weak binding; strength is not graded here. In cells and extracts the contact can be indirect.

B1: STX10 (protein)
chain: SLEDPFFVVRGEVQKAVNTARGLYQRWCELLQESAAVGREELDWTTNELRNGLRSIEWDLEDLEETIGIVEANPGKFKLPAGDLQERKVFVERMREAVQEMKDHMVSPTAVAFLERNNREILAGKPAAQKSPSDLLDASAVSATSRYIEEQQATQQLIMDEQDQQLEMVSGSIQVLKHMSGRVGEELDEQGIMLDAFAQEMDHTQSRMDGVLRKLAKVSHMTSDRRQWCAIAVLVGVLLLVLILLFSL
Regarding B1, the binding result is reported as “binds”.

B2: Calsyntenin 1 (SEQ ID No:36) (protein)
chain: ARVNKHKPWLEPTYHGIVTENDNTVLLDPPLIALDKDAPLRFAESFEVTVTKEGEICGFKIHGQNVPFDAVVVDKSTGEGVIRSKEKLDCELQKDYSFTIQAYDCGKGPDGTNVKKSHKATVHIQVNDVNEYAPVFKEKSYKATVIEGKQYDSILRVEAVDADCSPQFSQICSYEIITPDVPFTVDKDGYIKNTEKLNYGKEHQYKLTVTAYDCGKKRATEDVLVKISIKPTCTPGWQGWNNRIEYEPGTGALAVFPNIHLETCDEPVASVQATVELETSHIGKGCDRDTYSEKSLHRLCGAAAGTAELLPSPSGSLNWTMGLPTDNGHDSDQVFEFNGTQAVRIPDGVVSVSPKEPFTISVWMRHGPFGRKKETILCSSDKTDMNRHHYSLYVHGCRLIFLFRQDPSEEKKYRPAEFHWKLNQVCDEEWHHYVLNVEFPSVTLYVDGTSHEPFSVTEDYPLHPSKIETQLVVGACWQEFSGVENDNETEPVTVASAGGDLHMTQFFRGNLAGLTLRSGKLADKKVIDCLYTCKEGLDLQVLEDSGRGVQIQAHPSQLVLTLEGEDLGELDKAMQHISYLNSRQFPTPGIRRLKITSTIKCFNEATCISVPPVDGYVMVLQPEEPKISLSGVHHFARAASEFESSEGVFLFPELRIISTITREVEPEGDGAEDPTVQESLVSEEIVHDLDTCEVTVEGEELNHEQESLEVDMARLQQKGIEVSSSELGMTFTGVDTMASYEEVLHLLRYRNWHARSLLDRKFKLICSELNGRYISNEFKVEVNVIHTANPMEHANHMAAQPQFVHPEHRSFVDLSGHNLANPHPFAVVPSTATVVIVVCVSFLVFMIILGVFRIRAAHRRTMRDQDTGKENEMDWDDSALTITVNPMETYEDQHSSEEEEEEEEEEESEDGEEEDDITSAESESSEEEEGEQGDPQNATRQQQLEWDDSTLSY
In the case of B2, the binding entry was “binds”.

B3: FADS2 (delta-6-desaturase) (enzyme)
chain: MGKGGNQGEGAAEREVSVPTFSWEEIQKHNLRTDRWLVIDRKVYNITKWSIQHPGGQRVIGHYAGEDATDAFRAFHPDLEFVGKFLKPLLIGELAPEEPSQDHGKNSKITEDFRALRKTAEDMNLFKTNHVFFLLLLAHIIALESIAWFTVFYFGNGWIPTLITAFVLATSQAQAGWLQHDYGHLSVYRKPKWNHLVHKFVIGHLKGASANWWNHRHFQHHAKPNIFHKDPDVNMLHVFVLGEWQPIEYGKKKLKYLPYNHQHEYFFLIGPPLLIPMYFQYQIIMTMIVHKNWVDLAWAVSYYIRFFITYIPFYGILGALLFLNFIRFLESHWFVWVTQMNHIVMEIDQEAYRDWFSSQLTATCNVEQSFFNDWFSGHLNFQIEHHLFPTMPRHNLHKIAPLVKSLCAKHGIEYQEKPLLRALLDIIRSLKKSGKLWLDAYLHK
As for B3, the binding result was “binds”.

B4: calsyntenin 1 (SEQ ID No:6) (protein)
chain: ARVNKHKPWLEPTYHGIVTENDNTVLLDPPLIALDKDAPLRFAGEICGFKIHGQNVPFDAVVVDKSTGEGVIRSKEKLDCELQKDYSFTIQAYDCGKGPDGTNVKKSHKATVHIQVNDVNEYAPVFKEKSYKATVIEGKQYDSILRVEAVDADCSPQFSQICSYEIITPDVPFTVDKDGYIKNTEKLNYGKEHQYKLTVTAYDCGKKRATEDVLVKISIKPTCTPGWQGWNNRIEYEPGTGALAVFPNIHLETCDEPVASVQATVELETSHIGKGCDRDTYSEKSLHRLCGAAAGTAELLPSPSGSLNWTMGLPTDNGHDSDQVFEFNGTQAVRIPDGVVSVSPKEPFTISVWMRHGPFGRKKETILCSSDKTDMNRHHYSLYVHGCRLIFLFRQDPSEEKKYRPAEFHWKLNQVCDEEWHHYVLNVEFPSVTLYADGTSHEPFSVTEDYPLHPSKIETQLVVGACWQEFSGVENDNETEPVTVACAGGDLHMTQFFRGNLAGLTLRSGKLADKKVIDCLYTCKEGLDLQVLEDSGRGVQIQAHRSQLVLTLEGEDLGELDKAMQHISYLNSRQFPTPGIRRLKITSTIKCFNEATCISVPPVDGYVMVLQPEEPKISLSGVHHFARAASEFESSEGVFLFPELRIISTITREVEPEGDGAEDPTVQESLVSEEIVHDLDTCEVTVEGEELNHEQESLEVDMARLQQKGIEVSSSELGMTFTGVDTMASYEEVLHLLRYRNWHARSLLDRKFKLICSELNGRYISNEFKVEVNVIHTANPMEHANHMAAQPQFVHPEHRSFVDLSGHNLANPHPFAVVHSTATVVIVVCVSSLVFMIILGVFRIRAAHRRTMRDQDTGKENEMDWDDSALTITVNPMETYEDQHSSEEEEEEEEEEESEDGEEEDDITSAESESSEEEEGEQGDPQNATRQQQLEWDDSTLSY
Turning to B4, the binding entry is given as “binds”.

B5: Integral membrane transporter protein (protein)
chain: MVNYAWAGRSQRKLWWRSVAVLTCKSVVRPGYRGGLQARRSTLLKTCARARATAPGAMKMVAPWTRFYSNSCCLCCHVRTGTILLGVWYLIINAVVLLILLSALADPDQYNFSSSELGGDFEFMDDANMCIAIAISLLMILICAMATYGAYKQRAAWIIPFFCYQIFDFALNMLVAITVLIYPNSIQEYIRQLPPNFPYRDDVMSVNPTCLVLIILLFISIILTFKGYLISCVWNCYRYINGRNSSDVLVYVTSNDTTVLLPPYDDATVNGAAKEPPPPYVSA
As for B5, the binding result is “binds”.

B6: CGI-13 (protein)
chain: MSFLIDSSIMITSQILFFGFGWLFFMRQLFKDYEIRQYVVQVIFSVTFAFSCTMFELIIFEILGVLNSSSRYFHWKMNLCVILLILVFMVPFYIGYFIVSNIRLLHKQRLLFSCLLWLTFMYFFWKLGDPFPILSPKHGILSIEQLISRVGVIGVTLMALLSGFGAVNCPYTYMSYFLRNVTDTDILALERRLLQTMDMIISKKKRMAMARRTMFQKGEVHNKPSGFWGMIKSVTTSASGSENLTLIQQEVDALEELSRQLFLETADLYATKERIEYSKTFKGKYFNFLGYFFSIYCVWKIFMATINIVFDRVGKTDPVTRGIEITVNYLGIQFDVKFWSQHISFILVGIIIVTSIRGLLITLTKFFYAISSSKSSNVIVLLLAQIMGMYFVSSVLLIRMSMPLEYRTIITEVLGELQFNFYHRWFDVIFLVSALSSILFLYLAHKQAPEKQMAP
B6: the binding result was “binds”.

B7: SIM TO Y71H10A. 2.P. (protein)
chain: MVSIPEYYEGKNVLLTGATGFLGKVLLEKLLRSCPKVNSVYVLVRQKAGQTPQERVEEVLSGKLFDRLRDENPDFREKIIAINSELTQPKLALSEEDKEVIIDSTNIIFHCAATVRFNENLRDAVQLNVIATRQLILLAQQMKNLEVFMHVSTAYAYCNRKHIDEVVYPPPVDPKKLIDSLEWMDDGLVNDITPKLIGDRPNTYIYTKALAEYVVQQEGAKLNVAIVRPSIVGASWKEPFPGWIDNFNGPSGLFIAAGKGILRTIRASNNALADLVPVDVVVNMSLAAAWYSGVNRPRNIMVYNCTTGSTNPFHWGEVEYHVISTFKRNPLEQAFRRPNVNLTSNHLLYHYWIAVSHKAPAFLYDIYLRMTGRSPRCPSFKFNSNSLSHHYRKGVSHRVSALLLDCTHVDRSETATFNIDVRQLHWAEYIENYCLGTKKYVLNEEMSGLPAARKHLNKTLFSLFHTALCHGKLTFVDDTFGFPCLLASGGPLLSVSLHFSAYVYSQIHLAFILRDLGSHSAPSLASLAGPRELTVGSLLDREWRQIKTDDFELGKSAGEVDLEGADIEGCLLATSPAVRQQALLQRGVQWYISIPTTQETVAMEMQI
In the case of B7, the binding entry was “binds”.

B8: Thioredoxin domain-containing protein (protein)
chain: RRSNVRVITDENWRELLEGDWMIEFYAPWCPACQNLQPEWESFAEWGEDLEVNIAKVDVTEQPGLSGRFIITALPTIYHCKDGEFRRYQGPRTKKDFINFISDKEWKSIEPVSSWFGPGSVLMSSMSALFQLSMWIRTCHNYFIEDLGLPVWGSYTVFALATLFSGLLLGLCMIFVADCLCPSKRRRPQPYPYPSKKLLSESAQPLKKVEEEQEADEEDVSEEEAESKEGTNKDFPQNAIRQRSLGPSLATDKS
In the case of B8, the binding entry was “binds”.

B9: PTK7 (SEQ ID No:80) (receptor)
chain: AIVFIKQPSSQDALQGRRALLRCEVEAPGPVHVYWLLDGAPVQDTERRFAQGSSLSFAAVDPLQDSGTFQCVARDDVTGEEARSANASFNIKWIEAGPVVLKHPASEAEIQPQTQVKLRCHIDGHPRPTYQWFRDGTPLSDGQSNHTVSSKERNLTLRPAGPEHSGLYSCCAHSAFSQACSSQNFTLSIADESFARVVLAPQDVVVARYEEAMFHCQFSAQPPPSLQWLFEDETPITNRSRPPHLRRATVFANGSLLLTQVRPRNAGIYRCIGQGQRGPPIILEATLHLAEIEDMPLFEPRVFTAGSEERVTCLPPKGLPEPSVWWEHAGVRLPTHGRVYQKGHELVLANIAESDAGVYTCHAANLAGQRRQDVNITVATVPSWLKKPQDSQLEEGKPGYLDCLTQATPKPTVVWYRNQMLISEDSRFEVFKNGTLRINSVEVYDGTWYRCMSSTPAGSIEAQAVLQVLEKLKFTPPPQPQQCMGFDKEATVPCSATGREKPTIKWERADGSSLPEWVTDNAGTLHFARVTRDDAGNYTCIASNGPQGQIRAHVQLTVAVFITFKVEPERTTVYQGHTALLQCEAQGDPKPLIQWKGKDRILDPTKLGPRMHIFQNGSLVIHDVAPEDSGRYTCIAGNSCNIKHTEAPLYVVDKPVPEESEGPGSPPPYKMIQTIGLSVGAAVAYIIAVLGLMFYCKKRCKAKRLQKQPEGEEPEMECLNGGPLQNGQPSAEIQEEVALTSLGSGPAATNKRHSTSDKMHFPRSSLQPITTLGKSEFGEVFLAKAQGLEEGVAETLVLVKSLQSKDEQQQLDFRRELEMFGKLNHANVVRLLGLCREAEPHYMVLEYVDLEDLKQFLRISKSKDEKLKSQPLSTKQKVALCTQVALGMEHLSNNRFVHKDLAARNCLVSAQRQVKVSALGLSKDVYNSEYYHFRQAWVALRWMSPEAILEGDFSTKSDVWASGVLMWEVFTHGEMPHGGQADDEVLADLQAGKARLPQPEGCPSKLYRLMQRCWALSPKDRPSFSEIASALGDSTVDSKP
On to B9, for which the binding entry was “binds”.

B10: DSCD75 (protein)
chain: LLDVWYLVRLPCAVLRARLLQPRVRDLLAEQRFPGRVLPSDLDLLLHMNNARYLREADFARVAHLTRCGVLGALRELRAHTVLAASCARHRRSLRLLEPFEVRTRLLGWDDRAFYLEARFVSLRDGFVCALLRFRQHLLGTSPERVVQHLCQRRVEPPELPADLQHWISYNEASSQLLRMESGLSDVTKDQ
Consider B10, for which the binding entry was “binds”.

(Values after patent US20060216292A1.)
